Measured values: PMC3938729
No constants are given. Whether binding was seen depends on the method and setting. In cells and extracts the contact can be indirect. Here binding means that the protein was enriched with, or labelled near, the bait; the list need not be complete.

Sequences of proteins named here, by UniProt entry; tags and fusion partners are left off.
UniProt P08670: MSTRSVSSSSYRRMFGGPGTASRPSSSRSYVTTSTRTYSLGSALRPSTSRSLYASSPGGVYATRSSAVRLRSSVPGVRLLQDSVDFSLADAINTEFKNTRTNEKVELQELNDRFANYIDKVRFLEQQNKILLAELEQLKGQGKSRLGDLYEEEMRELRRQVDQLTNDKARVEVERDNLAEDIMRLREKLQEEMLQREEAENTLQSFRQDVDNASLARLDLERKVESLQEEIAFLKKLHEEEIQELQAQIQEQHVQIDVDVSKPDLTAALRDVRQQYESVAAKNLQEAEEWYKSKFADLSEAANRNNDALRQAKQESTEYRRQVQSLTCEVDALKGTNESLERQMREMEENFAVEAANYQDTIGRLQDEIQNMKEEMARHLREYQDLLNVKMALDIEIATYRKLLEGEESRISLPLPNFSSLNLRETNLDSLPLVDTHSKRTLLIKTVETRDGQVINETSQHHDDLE
UniProt Q7KZF4: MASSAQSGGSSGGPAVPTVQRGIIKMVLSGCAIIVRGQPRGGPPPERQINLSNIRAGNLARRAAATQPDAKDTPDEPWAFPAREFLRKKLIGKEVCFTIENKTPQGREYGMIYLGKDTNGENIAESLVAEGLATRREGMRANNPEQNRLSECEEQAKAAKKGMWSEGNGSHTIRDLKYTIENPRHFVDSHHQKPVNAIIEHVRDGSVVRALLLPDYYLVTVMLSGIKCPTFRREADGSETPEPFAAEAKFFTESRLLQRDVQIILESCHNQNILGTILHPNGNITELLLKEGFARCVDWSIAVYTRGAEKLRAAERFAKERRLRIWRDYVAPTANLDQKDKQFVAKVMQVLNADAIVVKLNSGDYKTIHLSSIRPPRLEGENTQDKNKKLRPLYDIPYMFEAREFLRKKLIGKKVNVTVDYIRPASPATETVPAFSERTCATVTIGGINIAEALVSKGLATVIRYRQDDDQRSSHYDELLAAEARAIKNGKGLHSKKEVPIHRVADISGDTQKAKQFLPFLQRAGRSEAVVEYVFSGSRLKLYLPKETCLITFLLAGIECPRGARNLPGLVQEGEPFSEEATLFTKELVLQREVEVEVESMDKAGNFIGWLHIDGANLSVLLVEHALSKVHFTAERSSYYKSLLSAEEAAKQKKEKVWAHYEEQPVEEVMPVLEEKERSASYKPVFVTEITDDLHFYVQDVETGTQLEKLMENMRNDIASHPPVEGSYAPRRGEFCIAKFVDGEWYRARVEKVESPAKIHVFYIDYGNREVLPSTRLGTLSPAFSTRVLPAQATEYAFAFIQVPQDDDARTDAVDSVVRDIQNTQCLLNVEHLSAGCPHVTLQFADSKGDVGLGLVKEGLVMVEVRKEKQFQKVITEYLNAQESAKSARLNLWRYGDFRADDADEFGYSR
UniProt Q9NP72: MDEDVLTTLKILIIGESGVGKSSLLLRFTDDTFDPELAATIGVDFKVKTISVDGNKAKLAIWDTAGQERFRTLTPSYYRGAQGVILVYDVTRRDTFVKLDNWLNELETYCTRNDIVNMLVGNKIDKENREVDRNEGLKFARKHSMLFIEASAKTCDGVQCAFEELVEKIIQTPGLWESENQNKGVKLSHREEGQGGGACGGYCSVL

T1: perilipin (human (endogenous in human preadipose cells)) (UniProt O60240)
T1 sequence: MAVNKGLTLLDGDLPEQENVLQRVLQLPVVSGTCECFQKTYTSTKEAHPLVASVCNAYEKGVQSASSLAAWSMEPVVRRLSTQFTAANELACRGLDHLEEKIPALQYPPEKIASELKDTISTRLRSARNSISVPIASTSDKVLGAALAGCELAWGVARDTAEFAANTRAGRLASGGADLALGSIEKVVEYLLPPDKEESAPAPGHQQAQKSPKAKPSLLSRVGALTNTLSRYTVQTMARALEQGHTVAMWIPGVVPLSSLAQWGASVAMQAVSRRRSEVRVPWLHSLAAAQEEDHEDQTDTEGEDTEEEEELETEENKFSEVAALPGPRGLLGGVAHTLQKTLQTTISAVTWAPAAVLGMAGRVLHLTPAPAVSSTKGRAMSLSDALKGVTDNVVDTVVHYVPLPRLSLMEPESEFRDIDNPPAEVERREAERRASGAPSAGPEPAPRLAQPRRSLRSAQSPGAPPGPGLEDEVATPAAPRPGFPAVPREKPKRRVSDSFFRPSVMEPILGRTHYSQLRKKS

B1: S3-12 (protein, UniProt Q96Q06 1-1371)
chain: MSAPDEGRRDPPKPKGKTLGSFFGSLPGFSSARNLVANAHSSARARPAADPTGAPAAEAAQPQAQVAAHPEQTAPWTEKELQPSEKMVSGAKDLVCSKMSRAKDAVSSGVASVVDVAKGVVQGGLDTTRSALTGTKEVVSSGVTGAMDMAKGAVQGGLDTSKAVLTGTKDTVSTGLTGAVNVAKGTVQAGVDTTKTVLTGTKDTVTTGVMGAVNLAKGTVQTGVETSKAVLTGTKDAVSTGLTGAVNVARGSIQTGVDTSKTVLTGTKDTVCSGVTGAMNVAKGTIQTGVDTSKTVLTGTKDTVCSGVTGAMNVAKGTIQTGVDTSKTVLTGTKDTVCSGVTGAMNVAKGTIQTGVDTTKTVLTGTKNTVCSGVTGAVNLAKEAIQGGLDTTKSMVMGTKDTMSTGLTGAANVAKGAMQTGLNTTQNIATGTKDTVCSGVTGAMNLARGTIQTGVDTTKIVLTGTKDTVCSGVTGAANVAKGAVQGGLDTTKSVLTGTKDAVSTGLTGAVNVAKGTVQTGVDTTKTVLTGTKDTVCSGVTSAVNVAKGAVQGGLDTTKSVVIGTKDTMSTGLTGAANVAKGAVQTGVDTAKTVLTGTKDTVTTGLVGAVNVAKGTVQTGMDTTKTVLTGTKDTIYSGVTSAVNVAKGAVQTGLKTTQNIATGTKNTFGSGVTSAVNVAKGAAQTGVDTAKTVLTGTKDTVTTGLMGAVNVAKGTVQTSVDTTKTVLTGTKDTVCSGVTGAANVAKGAIQGGLDTTKSVLTGTKDAVSTGLTGAVKLAKGTVQTGMDTTKTVLTGTKDAVCSGVTGAANVAKGAVQMGVDTAKTVLTGTKDTVCSGVTGAANVAKGAVQTGLKTTQNIATGTKNTLGSGVTGAAKVAKGAVQGGLDTTKSVLTGTKDAVSTGLTGAVNLAKGTVQTGVDTSKTVLTGTKDTVCSGVTGAVNVAKGTVQTGVDTAKTVLSGAKDAVTTGVTGAVNVAKGTVQTGVDASKAVLMGTKDTVFSGVTGAMSMAKGAVQGGLDTTKTVLTGTKDAVSAGLMGSGNVATGATHTGLSTFQNWLPSTPATSWGGLTSSRTTDNGGEQTALSPQEAPFSGISTPPDVLSVGPEPAWEAAATTKGLATDVATFTQGAAPGREDTGLLATTHGPEEAPRLAMLQNELEGLGDIFHPMNAEEQAQLAASQPGPKVLSAEQGSYFVRLGDLGPSFRQRAFEHAVSHLQHGQFQARDTLAQLQDCFRLIEKAQQAPEGQPRLDQGSGASAEDAAVQEERDAGVLSRVCGLLRQLHTAYSGLVSSLQGLPAELQQPVGRARHSLCELYGIVASAGSVEELPAERLVQSREGVHQAWQGLEQLLEGLQHNPPLSWLVGPFALPAGGQ
B2: TIP47 (protein, UniProt O60664 1-434)
chain: MSADGAEADGSTQVTVEEPVQQPSVVDRVASMPLISSTCDMVSAAYASTKESYPHIKTVCDAAEKGVRTLTAAAVSGAQPILSKLEPQIASASEYAHRGLDKLEENLPILQQPTEKVLADTKELVSSKVSGAQEMVSSAKDTVATQLSEAVDATRGAVQSGVDKTKSVVTGGVQSVMGSRLGQMVLSGVDTVLGKSEEWADNHLPLTDAELARIATSLDGFDVASVQQQRQEQSYFVRLGSLSERLRQHAYEHSLGKLRATKQRAQEALLQLSQVLSLMETVKQGVDQKLVEGQEKLHQMWLSWNQKQLQGPEKEPPKPEQVESRALTMFRDIAQQLQATCTSLGSSIQGLPTNVKDQVQQARRQVEDLQATFSSIHSFQDLSSSILAQSRERVASAREALDHMVEYVAQNTPVTWLVGPFAPGITEKAPEEKK

Tests used:
[1] = target: vimentin (human (endogenous in human preadipose cells)) (UniProt P08670); experiment: affinity purification with mass spectrometry; IPs from density gradient fraction LD2 of AIM-stimulated human preadipocytes with mab Peri112.17 or mab VIM 3B4; SDS-PAGE, silver staining, complete gel lanes cut, tryptic digests, MS
[2] = target: T1, perilipin (human (endogenous in human preadipose cells)); experiment: as above

Molecule	binding [1]	binding [2]
100 kD coactivator protein (from UniProt Q7KZF4 1-910)	binds	binds
Rab-18 (from UniProt Q9NP72 1-206)	binds	binds
N-terminal head sequence domain of vimentin (domain or fragment)		binds
B1	binds	binds
B2	binds	
